Test results taken from patent publication US20090318357A1, “Molecules Preferentially Associated with Effector T Cells or Regulatory T Cells and Methods of Their Use” (Tolerx, Inc., priority 2002, published 2009).
At least one compound was matched to its structure with a doubt left.

What was measured:
Assay type in all cases: cell-based, human
[1] = test system: Th1 cells; test: Proliferation of differentiated Th1 cells (cell count); details: re-stimulated with anti-CD3 and anti-CD28, three days, cells counted; vs untreated cells
From the text: (§1) Differentiated cell lines were produced from cells prepared from human cord blood or peripheral blood CD4+CD45RA+ naïve T cells by a variety of methods, including flow cytometry and magnetic bead separations. Purity of the starting populations was >95%. Cells were then stimulated by CD3 and CD28 antibodies in RPMI 1640 with 10% FCS and 1% Human AB serum with defined mixtures of cytokines and neutralizing antibodies to cytokines to produce the differentiated cell types. […]
(§2) Differentiated cell types were prepared as described in Example 1 then cultured in the presence of anti-CD3 and anti-CD28 for seven days. Cells were subsequently re-stimulated with anti-CD3 and anti-CD28, with the addition of Serotonin at 1, 10 and 100 μM, for three days at which time the cells were counted and the data were plotted as a percent of control (untreated cells).
as §2, with “anti-CD28 (as described in Example 7),” for “anti-CD28,”, “either Rolipram or Zardaverine” for “Serotonin”, “0.1 μM, 1.0 μM and” for “1,”, “μM” for “and 100 μM,”

[2] = test system: Th1 cells; test: Cytokine production in differentiated Th1 cells (Searchlight ELISA); details: percent of untreated control, 7-12 days
From the text: (§3) Differentiated cell lines were produced from cells prepared from human cord blood or peripheral blood CD4+CD45RA+ naïve T cells by a variety of methods, including flow cytometry and magnetic bead separations. Purity of the starting populations was >95%. Cells were then stimulated by CD3 and CD28 antibodies in RPMI 1640 with 10% FCS and 1% Human AB serum with defined mixtures of cytokines and neutralizing antibodies to cytokines to produce the differentiated cell types. Th1 cells were produced by culture with IL12 (62 U/ml) and anti-IL4 (0.2 ug/ml); Th2 cells were produced by culture in IL4(145 U/ml) and anti-IL12 (10 ug/ml) and anti-IFNγ (10 ug/ml); and regulatory T cells were produced by culture in TGFβ (32 U/ml), IL9 (42 U/ml), anti-IL4 (10 ug/ml) and anti-IL12 (10 ug/ml) and anti-IFNγ (10 ug/ml). (Note: anti-IL12 was not used in all experiments). All cultures were supplemented with IL2 (65 U/ml) and IL15 (4500 U/ml). Cells were split into larger culture dishes as warranted by cell division. At the conclusion of one round of cell differentiation (7-12 days), cells were harvested for preparation of total RNA for use in the gene chip experiments.
(§4) Differentiated cells were prepared as described in Example 1. Varying concentrations (0.1 μM, 1.0 μM and 10 μM) of Thioperamide was added at the time of plating. At the conclusion of one round of cell differentiation (7-12 days), cells were assayed for the production of the cytokines, IL-2, IL-4, IL-5, IL-10, IL-12-p70, IL-13, IFN-γ, TNF-alpha, and TGFβ1, by Searchlight™ technology, a chemiluminescent enzyme-linked immunoabsorbant assay (ELISA) according to the manufacturer's instructions, commercially available from Pierce Biotechnology.
(§5) Data are plotted as a percent of control (untreated) assuming that the levels of cytokine production in stimulated differentiated cells in the absence of Thioperamide is 100%.
(§6) Differentiated cells were prepared as described in Example 1. Varying concentrations (1.0 μM, 10.0 μM and 100 μM) of Serotonin was added at the time of plating. […]

[3] = test system: anti-CD3/anti-CD28 stimulated PBLs; test: Transcription factor (FOXP3, Tbox21, GATA3) mRNA expression by Real-Time PCR in activated PBL; details: over the concentrations tested, control = 100%
Method: This example describes the effect of TGFβ1 on the expression levels of Tbox 21, GATA3 and FOXP3 expression in anti-CD3/anti-CD28 stimulated PBLs. Real-time PCR was used to quantitate the levels of transcription factor mRNA in the presence and absence of TGFβ1.
PBL were stimulated for 72 hours with anti-CD3/anti-CD28 in the presence or absence of TGFβ1 and total RNA was extracted using a QiganRNeasy Mini Kit according to manufacturer's instructions. RNA was stored at minus 80° C.
cDNA was prepared from RNA using the Applied Biosystems High-Capacity cDNA Archive Kit according to manufacturer's instructions.
One μg cDNA was amplified using Applied Biosystems Assays-on-Demand™ Gene Expression products (i.e., TaqMan Universal PCR Mastermix and Assay-on-Demand solution, including marker specific primers) according to the following protocol, in accordance with manufacturer's instructions. Probe/primer reagents for FOXP3, GATA3 and Tbox21 were obtained from Applied Biosystems via the Assay on Demand program.
For the QPCR reaction, 2.5 μl Assay on Demand reagent (Applied Biosystems) were added to 25 μl TaqMan Master Mix™ and samples brought to a total volume of 50 μl with RNAse-free water. PCR reactions were run under the following conditions: 50° C. for 1 minute, 95° C. for 10 minutes and 40 cycles of 95° C. for 15 seconds followed by 60° C. for 1 minute. 18 sRNA or β-actin was run with every assay as a control; 2.5 μl of primer/probe mix, 25 μl of TaqMan MasterMix™, 22.5 μl RNAse-free water. Reactants were detected using an Applied Biosystems QPCR instrument (i.e., ABI Program 7000 SDS Sequence Detection System). The relative expression of the transcription factors for both TGFβ1-treated and untreated stimulated PBLs was determined. Relative expression was calculated assuming that the levels of transcription factor mRNA in stimulated PBL in the absence of added cytokines was 100%. […]

[4] = test system: Th2 cells; test: Proliferation of differentiated Th2 cells (cell count); details: re-stimulated with anti-CD3 and anti-CD28, three days, cells counted; vs untreated cells
From the text: as §1, §2
as §2, with “anti-CD28 (as described in Example 7),” for “anti-CD28,”, “either Rolipram or Zardaverine” for “Serotonin”, “0.1 μM, 1.0 μM and” for “1,”, “μM” for “and 100 μM,”

[5] = test system: Th2 cells; test: Cytokine production in differentiated Th2 cells (Searchlight ELISA); details: percent of untreated control, 7-12 days
From the text: as §3, §4, §5
Differentiated cells were prepared as described in Example 1. Varying concentrations (1.0 μM, 10.0 μM and 100 μM) of Serotonin was added at the time of plating. At the conclusion of one round of cell differentiation (7-12 days), cells were assayed for the production of the cytokines, IL-2, IL-4, IL-5, IL-10, IL-12-p70, IL-13, IFN-γ, TNFα, and TGFβ1, by ELISA as described in Example 5.
Data are plotted as a percent of control (untreated) assuming that the levels of cytokine production in stimulated PBL in the absence of Serotonin is 100%.
Differentiated cells were prepared as described in Example 1. Varying concentrations (0.1 μM, 1.0 μM and 10.0 μM) of Rolipram or Zardaverine was added at the time of plating. […]

[6] = test system: TGFβ1-derived Treg cells; test: Proliferation of TGFβ1-derived Treg cells (cell count); details: cells counted
From the text: as §1, §2
as §2, with “anti-CD28 (as described in Example 7),” for “anti-CD28,”, “either Rolipram or Zardaverine” for “Serotonin”, “0.1 μM, 1.0 μM and” for “1,”, “μM” for “and 100 μM,”

[7] = test system: TGFβ1-derived Treg cells; test: Cytokine production in TGFβ1-derived Treg cells (Searchlight ELISA); details: percent of untreated control, 7-12 days
From the text: as §3, §4, §5, §6

[8] = test system: Treg cells; test: [3H]thymidine incorporation into Treg cells; details: 48 hrs with inhibitor plus 17 hrs [3H]thymidine; FIG. 14A
[9] = test system: Th2 cells; test: [3H]thymidine incorporation into TH2 cells; details: 48 hrs with inhibitor plus 17 hrs [3H]thymidine; FIG. 14A
[10] = test system: Th1 cells; test: [3H]thymidine incorporation into TH1 cells; details: 48 hrs with inhibitor plus 17 hrs [3H]thymidine; FIG. 14A

Compound	proliferation of Th1 cells [1]	production of IFN-gamma [2]	production of IL-10 [2]	production of TNF-alpha [2]	FOXP3 expression relative to control [3]	GATA3 expression relative to control [3]	Tbox21 expression relative to control [3]	proliferation of Th2 cells [4]	production of IL-4 [5]	production of IL-5 [5]	production of IL-10 [5]	production of IL-13 [5]	proliferation of TGFβ1-derived Treg cells compared with Th1 and Th2 cells ([6]; 0.1, 1.0 and 10 μM, three days)	proliferation of TGFβ1-derived Treg cells ([6]; re-stimulated with anti-CD3 and anti-CD28, three days, vs untreated cells)	production of IL-2 [7]	production of IL-10 [7]	production of TGFβ1 [7]	[3H]thymidine incorporation into Treg [8]	[3H]thymidine incorporation into TH2 [9]	[3H]thymidine incorporation into TH1 [10]
COc1cc(-c2ccc(=O)[nH]n2)ccc1OC(F)F [Zardaverine]	reduce	increased	reduced	reduced	increased expression	increased expression	neither of these inhibitors had more than a modest effect	reduce	increased	increased	reduced	increased	may have been more strongly affected	reduce	increased	reduced	increased			
O=c1cc(N2CCOCC2)oc2c(-c3ccccc3)cccc12 [LY 294002]																		significantly reduced	significantly reduced	significantly reduced
